# “And” between values parts separate entries of the source, which are not always exact repeats. Identical values can stand only once. Among all 360,000 compounds or so, about 7,500 (2.1%) were called active. The inconclusive results got no clear call from the source; some entries with a clear call stand among them for comparison. Calls come from the whole dose curve; as a rule, active = well fitted inhibition curve with a large enough effect; inconclusive = small, poorly fitted or top-dose-only effect, or effect the other way; inactive = flat fitted curve, though single readings scatter. A potency beside an inconclusive call is a rough fit, not a confirmed value.
# Assay: Nrf2 qHTS screen for inhibitors; note: nearly all actives have a fitted effect of over 60% in size
# Settings: A549 ARE-Fluc reporter, luciferase luminescence, 18-24 h; series mostly up to 46 µM
# Summary of the method: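 Nrf2 activity is the BugLite luminescence, read 15 min after reagent at room temperature, following CellTiter-Fluor cytotoxicity readout (30 min, 37C). Compound titrations were applied for 18-24 h to 5000 A549 ARE_Fluc cells/well in 5% FBS OPTI-MEM.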
# Potency is the fitted concentration of half-maximal effect.
row,Compound,Potency
1,Cc1ccc(C(=O)Cn2cnc3ccccc3c2=O)cc1,"inconclusive: 0.164 µM [activator, full curve, poor fit]"
2,C/C(CC(=O)Nc1ccc(Cl)c(C(F)(F)F)c1)=N\NC(N)=S,"inconclusive: 23.1 µM [falling, partial curve, poor fit]"
3,COc1ccc(NC(=O)c2oc3ccccc3c2NC(=O)c2ccc3c(c2)OCO3)cc1,"inconclusive: 7.31 µM [falling, partial curve, poor fit]"
4,CCOC(=O)c1c(N)sc(C(=O)N(C)C)c1C,"inconclusive: 9.2 µM [activator, partial curve, poor fit]"
5,CC(C)(C)NS(=O)(=O)c1ccc(CCC(=O)NCc2ccco2)cc1,inactive
6,CCOc1ccc(NC(=O)CN2C(=O)C(c3ccccc3)=NC23CCC(C)CC3)cc1 (configuration not stated),"inconclusive: 23.1 µM [falling, single point]"
7,Cc1nn(C)c(C)c1/C=N/NC(=O)C(C)(C)Oc1ccc(Cl)cc1,"inconclusive: 7.31 µM [falling, partial curve, poor fit]"
8,O=C(NC1CCCCCC1)c1ccc2c(c1)sc1nc(-c3ccc(F)cc3)cn12,inactive
9,CC(C)c1ccc2[nH]c3c(c2c1)CCC/C3=N\NC(=O)c1ccncc1,"inconclusive: 29.1 µM [falling, single point]"
10,CCCN1C(C(=O)c2ccccc2)=C(OC(=O)COc2ccccc2)c2ccccc2S1(=O)=O,active: 23.1 µM
11,CCOc1ccccc1CNC(=O)Cn1c(-c2ccccc2)cc(C(C)=O)c1C,"inconclusive: 20.6 µM [falling, partial curve, poor fit]"
12,CCCn1nc(C(=O)N2CC(=O)Nc3ccccc32)c2ccccc2c1=O,"inconclusive: 4.11 µM [falling, single point]"
13,Cc1ccn2c(=O)c(C(=O)NCCc3ccccc3)c(O)nc2c1,"inconclusive: 25.9 µM [activator, single point]"
14,Cc1ccc(-c2nc(CN(C)C3CCOCC3)c(C)o2)s1,inactive
15,c1ccc(-n2ncc3c2ncn2nc(-c4ccco4)nc32)cc1,"inconclusive: 0.651 µM [activator, full curve, poor fit]"
16,COc1cc(/C=N/NC(=O)c2c(-c3ccccc3)noc2C)cc(OC)c1OC,"inconclusive: 29.1 µM [falling, single point]"
17,Cc1[nH]c2ccccc2c1C(=O)COc1ccccc1F,"inconclusive: 23.1 µM [activator, partial curve, poor fit]"
18,CCOC(=O)c1nn(-c2ccc(OC)cc2)c(=O)c2c(NC(=O)Cc3ccccc3)scc12,inactive
19,O=C(N/N=C/c1sc(=O)n(-c2ccccc2)c1Cl)c1ccncc1,"inconclusive: 6.51 µM [activator, partial curve]"
20,O=C(CCCOc1ccccc1)N1CCN(C(=O)c2ccco2)CC1,inactive
21,CCOC(=O)c1nnc(-c2cccs2)nc1NC(C)C,"inconclusive: 0.411 µM [falling, partial curve, poor fit]"
22,Cn1c2ccccc2c2ncn(CCCN3CCOCC3)c(=O)c21,"inconclusive: 4.11 µM [activator, full curve, poor fit]"
23,O=C(Nc1ccc(Cl)cc1)C1CCCN(c2ncnc3c2nc2n3CCCCC2)C1 (configuration not stated),"inconclusive: 29.1 µM [falling, single point]"

row,Compound,Potency
1,O=C(N/N=C\c1c(O)ccc2ccccc12)c1ccc(Cn2cccn2)o1,"inconclusive: 29.1 µM [falling, single point]"
2,c1ccc(-c2csc(N3CCN(c4ccccn4)CC3)n2)cc1,"inconclusive: 20.6 µM [activator, partial curve]"
3,CCN(CC)c1nc2c3c(nc4c(c3c1C#N)CC(=O)N4c1ccc(Cl)cc1)NC(C)=N2,"inconclusive: 11.6 µM [falling, partial curve, poor fit]"
4,CC(C)CS(=O)(=O)c1oc(-c2ccc(F)cc2)nc1S(=O)(=O)c1ccccc1,active: 23.1 µM
5,COc1ccc(OC)c(C(c2nnnn2C(C)(C)C)N2CCc3ccccc3C2)c1 (configuration not stated),"inconclusive: 5.8 µM [falling, partial curve]"
6,COc1cccc(Cn2nnc(C(=O)Nc3cc(C)ccc3C)c2N)c1,active: 16.4 µM
7,O=C(c1ccc(F)cc1)c1ccc(N2CCCC2)cc1,"inconclusive: 6.51 µM [activator, partial curve]"
8,CCOC(=O)CSC1=N/C(=C/c2ccc(-n3cncn3)cc2)C(=O)N1C(C)=O,"inconclusive: 0.651 µM [activator, full curve, poor fit]"
9,COc1ccc(-c2cc(C(=O)N3CCN(C(=O)c4ccccc4F)CC3)[nH]n2)cc1,"inconclusive: 25.9 µM [falling, partial curve, poor fit]"
10,CC(=O)N(C)c1ccc(NC(=O)COc2ccc(Br)cc2C)cc1,"inconclusive: 29.1 µM [falling, single point]"
11,CCOc1ccccc1NC(=O)c1c(NC(=O)COc2ccccc2)sc2c1CCCCC2,inactive
12,CCOC(=O)c1c(C)[nH]c(C(=O)N/N=C/c2ccc(OC)c(OC)c2)c1C,inactive
13,CCOCC(=O)Nc1ccc(S(=O)(=O)NCC2CCCO2)cc1 (configuration not stated),inactive
14,CCCn1cc(S(=O)(=O)c2ccccc2)c(=O)c2cc(F)c(N3CCCCC3)cc21,inactive
15,Cc1ccc(N2C(=O)CSC23C(=O)N(CC(=O)NCCc2ccccc2)c2ccccc23)cc1C (configuration not stated),"inconclusive: 4.61 µM [activator, full curve]"
16,Cc1cc(C(=O)COC(=O)c2cc(Cl)ccc2N)c(C)n1Cc1ccco1,"inconclusive: 2.91 µM [activator, full curve]"
17,CCc1ccc(NC(=O)Nc2ccc3c(c2)N(C)C(=O)CS3)cc1,active: 16.4 µM
18,O=C(NC(=S)NCCCN1CCOCC1)c1cccc2ccccc12,"inconclusive: 8.2 µM [falling, partial curve, poor fit]"
19,COc1ccc(-c2cc3nc4n(c(=O)c3s2)CCCCC4)cc1,"inconclusive: 16.4 µM [activator, partial curve]"
20,COc1ccc(C)cc1Nc1nc(N)c2ccccc2n1,inactive
21,OCCNc1ncnc2oc(-c3ccco3)c(-c3ccco3)c12,inactive
22,COc1ccc(-c2csc(NC(=O)c3cc(-c4cccs4)nc4ccccc34)n2)c(OC)c1,"inconclusive: 3.26 µM [falling, full curve, poor fit]"
23,CCN(CC)S(=O)(=O)c1ccc(NC(=O)c2ccc(OCC3CCCO3)cc2)cc1 (configuration not stated),"inconclusive: 29.1 µM [falling, single point]"

row,Compound,Potency
1,CCCCc1nc2cc(C(=O)N3CCCCC3C(=O)OC)ccc2o1 (configuration not stated),"inconclusive: 11.6 µM [activator, partial curve]"
2,CCCCn1c(N)c(N(Cc2ccccc2OC)C(=O)C(C)Oc2ccc(Cl)cc2)c(=O)[nH]c1=O (configuration not stated),inactive
3,CC1CCCCC1NC(=O)/C(C#N)=C/c1ccccc1F (configuration not stated),inactive
4,O=C1Nc2ccccc2Oc2cc([N+](=O)[O-])ccc21,"inconclusive: 1.64 µM [falling, full curve]"
5,CC1CCCCN1C(=O)CSc1nnc(-c2ccccc2F)o1 (configuration not stated),"inconclusive: 14.6 µM [activator, partial curve]"
6,Cc1nn(CCCC(=O)Nc2cc(Oc3ccccc3)cc([N+](=O)[O-])c2)c(C)c1[N+](=O)[O-],"inconclusive: 32.6 µM [falling, single point]"
7,COc1c(C)cc(C(=O)C2CCCN(Cc3c(C)n(C)n(-c4ccccc4)c3=O)C2)cc1C (configuration not stated),"inconclusive: 0.731 µM [activator, full curve, poor fit]"
8,Clc1cccc(-c2nnc(-c3ccccc3)o2)c1,"inconclusive: 2.31 µM [activator, full curve]"
9,CC1=CC(C)=Nc2ccc(C)cc2N1,"inconclusive: 18.4 µM [activator, partial curve] and inconclusive: 16.4 µM [activator, partial curve]"
10,COc1cc(C2C=C(Nc3ccccc3)C(=O)N2c2ccccc2)ccc1O (configuration not stated),active: 18.4 µM
11,CS(=O)(=O)c1ccc(S(=O)(=O)N2CCC(CO)(CCCc3ccccc3)CC2)cc1,"inconclusive: 13 µM [falling, partial curve, poor fit]"
12,C/C(N)=C(/C#N)C(=O)CSc1nnc(SCc2ccc(Cl)cc2)s1,active: 18.4 µM and active: 20.6 µM
13,COc1ccc(Cl)cc1N(CC(=O)Nc1ccccc1C(=O)N1CCOCC1)S(C)(=O)=O,inactive
14,Cc1ccc(C)c(-n2nnnc2Sc2nnnn2-c2ccccc2)c1,"inconclusive: 29.1 µM [falling, single point]"
15,CSc1ccc(Cl)c(C(=O)N2CCOc3ccccc32)c1,"inconclusive: 29.1 µM [falling, single point]"
16,Cc1cccc(OCc2ccc(C(=O)Nc3ccc(F)cc3)cc2)c1,"inconclusive: 29.1 µM [falling, single point]"
17,COc1ccc(NC(=O)CN(C)C(=O)CSc2ccc3c(c2)OCCO3)cc1,inactive
18,CCOC(=O)Cc1nnc(NC(=O)C23CC4CC(CC(C4)C2)C3)s1,"inconclusive: 29.1 µM [falling, single point]"
19,Cc1ccc(NC(=O)C2CCN(c3nc4ccccc4nc3C(F)(F)F)CC2)cc1F,inactive
20,Cc1ccc2c(C)c(C(=O)Nc3cccnc3)oc2c1,"inconclusive: 20.6 µM [activator, partial curve]"
21,CCOC(=O)c1c(NC(=O)C2CC2)sc2c1CC(C)(C)OC2,"inconclusive: 29.1 µM [falling, single point]"

# Source: PubChem BioAssay AID504444 (National Center for Advancing Translational Sciences (NCATS), 2011)
